Laboratory results: patent US10947202B2, “Sodium ion channel inhibitors and pharmaceutically acceptable salts and polymorphs thereof and uses thereof” (SHANGHAI HAIYAN PHARMACEUTICAL TECHNOLOGY CO., LTD., priority 2017, dated 2021)
Some results were stated once for a whole list of compounds, not compound by compound.

Test: Solubility experiment
Type: physicochemical
Conditions: water, room temperature
Method: The solubility of crystal forms A, D, E-1, E-3, F and free base sample in buffer of 0.1M HCl, pH 4.5, pH 6.8 and water was tested at room temperature. In the test, the standard curves of free base sample and five crystal forms were plotted. Subsequently, 6 mg of API and five crystal form samples were weighed, respectively, and 2 ml of the solvent was added, the mixture was shaken at room temperature for 4 h, then ultrasonicated for 30 min, centrifuged, and the supernatant was taken out, filtered through a 0.45 μm filter and injected, and the solubility was measured, the results are shown in Table 28 (concentration is in mg/ml).

Cc1cc(N2CCN(Cc3cc(F)c(C(=O)NS(=O)(=O)C4CC4)cc3Cl)CC2)ccc1Cl [crystal form F, 5-chloro-4-((4-(4-chloro-3-methylphenyl)piperazin-1-yl)methyl)-N-(cyclopropylsulfonyl)-2-fluorobenzamide]
Solubility (mg/mL) H2O (listed as F): above 2.7 mg/mL

Cc1cc(N2CCN(Cc3cc(F)c(C(=O)NS(=O)(=O)C4CC4)cc3Cl)CC2)ccc1Cl [crystal form E-3, 5-chloro-4-((4-(4-chloro-3-methylphenyl)piperazin-1-yl)methyl)-N-(cyclopropylsulfonyl)-2-fluorobenzamide]
Solubility (mg/mL) H2O (listed as E-3): above 2.7 mg/mL

Cc1cc(N2CCN(Cc3cc(F)c(C(=O)NS(=O)(=O)C4CC4)cc3Cl)CC2)ccc1Cl [crystal form E-1, 5-chloro-4-((4-(4-chloro-3-methylphenyl)piperazin-1-yl)methyl)-N-(cyclopropylsulfonyl)-2-fluorobenzamide]
Solubility (mg/mL) H2O (listed as E-1): above 2.7 mg/mL
